Laboratory results from PubChem BioAssay AID504775 (Broad Institute, 2011).
The campaign covered roughly 320,000 compounds. About 310 (0.097%) were called active. Inconclusive results, whose numbers are uncertain, are shown with a selection of clear calls.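 The calls were made as follows: active = mean replicate activation of at least 60% and every replicate at or above 60%; inconclusive = mean or all-replicate condition met, but not both; inactive = mean below 60% and not all replicates reaching 60%.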

Experiment: enhancers of HDL lipid transfer via mSR-BI – ldlA[mSR-BI] CHO cells, DiI fluorescence, primary screen (AID 504775);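 also: 0% = median plate neutral-control signal and 100% = twice that signal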
Conditions: DiI-HDL uptake fluorescence, 3 h, at 12.5 µM, active compounds read high, 100 = double the neutral-control signal
Outline: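 Material: SR-BI-overexpressing, LDLR-lacking CHO cells; schedule: compound exposure 3 h, 37 °C; reagent: DiI-labelled HDL at 10 µg/mL final; technique: bottom-read fluorescence, 550/595 nm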

Row | SMILES | activation
1 | Cc1ccc(C)c(S(=O)(=O)/N=C(/Nc2ccccc2)c2ccccc2)c1 | inconclusive: 124%
2 | Cc1cccc(OCCn2c(=O)n(C)c3ccccc32)c1 | inconclusive: 201%
3 | O=C(CSc1nnc(CNC(=O)c2cccs2)o1)Nc1ccc(F)cc1F | inconclusive: 246%
4 | COc1cc([N+](=O)[O-])c2nccnc2c1 | inconclusive: 65.1%
5 | CC1CCCN(C(=O)C2CCN(Cc3ccc4c(c3)OCO4)CC2)C1 (configuration not stated) | inconclusive: 294%
6 | NC1=NC(=O)/C(=C/c2cn(CCC(=O)O)nc2-c2ccc(F)cc2)S1 | inconclusive: 63%
7 | CCS(=O)(=O)C1=NN2C(=N)/C(=C\c3ccc(SCc4ccco4)o3)C(=O)N=C2S1 | inconclusive: 91.1%
8 | CC1CCCCC12NC(=O)N(CC(=O)Nc1ccc3c(c1)OCCCO3)C2=O (configuration not stated) | inconclusive: 60.9%
9 | O=C(O)c1ccccc1C(=O)O | inconclusive: 187%
10 | C=CCNC(=S)/N=c1/ccccn1CCC | inconclusive: 133%
11 | Cc1cccc(N2C(=O)N3[C@H](c4ccc(Br)cc4)[C@@H]4C(=O)N(C(C)(C)C)C(=O)[C@@H]4[C@]3(C)C2=O)c1 | active: 60.1%
12 | CCC1(C)C2(C#N)C(N)=NC(OC)(OC)C12C#N (configuration not stated) | inactive: 28.4%
13 | O=C(COC(=O)CC(c1ccccc1)c1ccccc1)NCc1ccc(Cl)cc1 | inactive: 20.9%
14 | CC(/C=C1\SC(=S)N(CCC(=O)Nc2ccccc2O)C1=O)=C\c1ccccc1 | inconclusive: 159%
15 | Cc1ccc(C(=O)N2CCN(C)CC2)cc1S(=O)(=O)N1CCCCCC1 | inconclusive: 142%
16 | O=C(NCCN1CCNC1=O)C1CCC(=O)N(CCc2ccc(Cl)cc2)C1 (configuration not stated) | inconclusive: 61.8%
17 | C#CCOCCOCCOCCNc1nc(N2CCN(C(=O)C([C@@H](C)O)n3cc([C@@H](N)CCCCN)nn3)CC2)nc(N2CCN(C(=O)[C@H](CCC(=O)O)n3cc([C@@H](N)CCCCN)nn3)CC2)n1 (some centres not stated) | inconclusive: 67%
18 | CSc1ncccc1C(=O)OCC(=O)c1ccccc1 | inactive: -7.84%
19 | CCOC(=O)N1CCN(C(=O)CSc2nc(=O)n3ccccc3n2)CC1 | inconclusive: 218%

Row | SMILES | activation
20 | O=C(COc1ccccc1Cl)NCCNC(=O)c1cccnc1 | inconclusive: 210%
21 | Cn1c(=O)c2c(nc3n2CC(COc2ccc(Cl)cc2)O3)n(C)c1=O (configuration not stated) | inconclusive: 112%
22 | CC(C)CNC(=O)CC(=O)NN=C1CCCC1 | inconclusive: 68.3%
23 | COc1ccc(/C=C2\SC(=S)N(CCCC(=O)Nc3cc(C)on3)C2=O)cc1OC | inconclusive: 131%
24 | CC(=O)Nc1ccc(NC(=O)COC(=O)c2ccc(S(=O)(=O)N(C)c3ccccc3)cc2)cc1 | inactive: -29%
25 | CN(CC(=O)Nc1ccc(F)c(Cl)c1)S(=O)(=O)c1ccc2c(c1)n(C)c(=O)c(=O)n2C | inconclusive: 63.9%
26 | O=C(CSc1nc2ccc(Cl)cc2[nH]1)NCc1ccco1 | inconclusive: 68.2%
27 | O=C(Nc1ccccc1)c1ccccc1CCc1ccccc1 | inconclusive: 157%
28 | O=C(CCC(=O)N1CCOCC1)c1ccc(F)cc1 | inconclusive: 292%
29 | Cc1c(C(=O)Nc2cc(S(=O)(=O)N3CCOCC3)ccc2N2CCOCC2)oc2ccccc12 | inconclusive: 85%
30 | Cc1ccccc1-n1ncc(C(C)NS(=O)(=O)c2sccc2C)c1C (configuration not stated) | inactive: 6.56%
31 | COc1ccc2sc(-c3ccccc3OC)c(-c3ccc(OCCN4CCCC4)cc3)c2c1 | active: 88%
32 | Cc1nn(CCS(=O)(=O)c2ccc(Cl)cc2)c(C)c1Br | inconclusive: 116%
33 | Nc1[nH]c(N=NC(=O)c2ccc(Cl)cc2)c2ccccc12 | inconclusive: 119%
34 | Cc1ccc(OC(C)C(=O)N(C)c2ccccc2)c([N+](=O)[O-])n1 (configuration not stated) | inactive: -1.33%
35 | Nc1nnnn1/N=C/C(Br)=C/c1ccccc1 | inconclusive: 240%
36 | O=C(NC1CCN(Cc2ccccc2)CC1)c1cccc(S(=O)(=O)Nc2ccc(SC(F)F)cc2)c1 | inactive: -28%
37 | COc1cc(Cl)ccc1OCc1cc(C(=O)N2CCN(C)CC2)no1 | inconclusive: 89.9%
38 | O=C(OCc1ccccc1)c1cccc(-c2nnc(-c3ccccc3)o2)c1 | active: 62.4%

Four of the compounds above, as a markdown table:

| Row | SMILES | activation |
| --- | --- | --- |
| 22 | CC(C)CNC(=O)CC(=O)NN=C1CCCC1 | inconclusive: 68.3% |
| 23 | COc1ccc(/C=C2\SC(=S)N(CCCC(=O)Nc3cc(C)on3)C2=O)cc1OC | inconclusive: 131% |
| 24 | CC(=O)Nc1ccc(NC(=O)COC(=O)c2ccc(S(=O)(=O)N(C)c3ccccc3)cc2)cc1 | inactive: -29% |
| 25 | CN(CC(=O)Nc1ccc(F)c(Cl)c1)S(=O)(=O)c1ccc2c(c1)n(C)c(=O)c(=O)n2C | inconclusive: 63.9% |

Later entries.

Row | SMILES | activation
39 | CSc1nnc2c(n1)c(C)nn2-c1cccc(C)c1 | inconclusive: 67.5%
40 | COc1ccc(-c2csc(NC(=O)c3ccccc3F)n2)cc1 | inactive: 23.2%
41 | O=C(NCc1ccccc1)c1ccc2nnsc2c1 | inconclusive: 136%
42 | COc1cc(/C=C2\CCCc3c2nc2ccccc2c3C(=O)O)cc(OC)c1O | active: 231%
43 | CCOC(=O)c1[nH]c2ccccc2c1NC(=S)Nc1cc(C)ccc1C | inactive: 10.5%
44 | O=C1c2cccc3cccc(c23)C(=O)N1c1ccccc1Cl | inconclusive: 224%
45 | NC(=O)COc1ccc(/C=N\NC(=O)CC(=O)NCCc2ccccc2)cc1 | inactive: 26.1%
46 | Cc1cc(-c2ccccc2)n(-c2ccc(C(=O)NC(C)C)cc2)n1 | inconclusive: 81.8%
47 | COC(=O)C1=C(C)N(CCCC(=O)O)C(=O)NC1c1ccc(Cl)cc1 (configuration not stated) | inactive: -51%
48 | CC(C)CNC(=O)C(=O)NC1CCCC1 | inconclusive: 64.1%
49 | O=C(Nc1ccc(NC(=O)c2cccs2)cc1)c1ccccc1 | inconclusive: 231%
50 | O=C(C/C=N\OCc1ccc([N+](=O)[O-])cc1)Nc1ccc(Cl)cc1 | inactive: 10.2%
51 | CC(C)OC(=O)Nc1ccc(Oc2c(F)c(F)c(F)c(F)c2F)cc1 | inactive: -5.4%
52 | COc1ccc(/C=C/C(=O)NC(=S)Nc2ccc(S(=O)(=O)N=C(N)N)cc2)cc1OC | active: 286%
53 | O=C(NCc1cccs1)C1CCCN(S(=O)(=O)c2ccc3c(c2)OCO3)C1 (configuration not stated) | inconclusive: 61.5%
54 | Oc1ccccc1Oc1c(F)c(F)nc(N2CCCC2)c1F | inconclusive: 230%
55 | COc1ccccc1C(=O)NCCN1CCN(c2ccccc2)CC1 | inactive: -1.87%
56 | O=c1c2c3c(sc2nc(NCCO)n1CCc1ccccc1)CCCCC3 | inactive: -18.8%
57 | CCOc1cc(CN2CCCC(CO)(Cc3ccc(F)cc3F)C2)ccc1OC (configuration not stated) | inconclusive: 250%
